Source: US20240122983A1
No constants are given. Whether binding was seen depends on the method and setting. Some results given as binding are weak or reduced against the parent protein; the word gives no strength.

Protein sequences, listed by entry. Tags and fused reporters are not part of them. Lines headed by an entry give the natural chain unless they say otherwise; changes in a name come on top. Residues count along the entry.
UniProt P41274, residues 104-309: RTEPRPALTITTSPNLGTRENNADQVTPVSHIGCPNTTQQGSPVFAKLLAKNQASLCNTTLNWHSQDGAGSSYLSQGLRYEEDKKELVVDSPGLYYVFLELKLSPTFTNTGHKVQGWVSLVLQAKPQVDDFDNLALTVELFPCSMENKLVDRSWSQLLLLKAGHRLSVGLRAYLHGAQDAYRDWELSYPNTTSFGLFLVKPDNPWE
UniProt P27548, residues 112-260: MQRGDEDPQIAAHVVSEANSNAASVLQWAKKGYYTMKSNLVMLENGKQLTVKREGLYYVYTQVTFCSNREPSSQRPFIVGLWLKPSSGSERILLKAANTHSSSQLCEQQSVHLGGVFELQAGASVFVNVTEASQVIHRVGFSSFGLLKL
UniProt P43488, residues 51-198: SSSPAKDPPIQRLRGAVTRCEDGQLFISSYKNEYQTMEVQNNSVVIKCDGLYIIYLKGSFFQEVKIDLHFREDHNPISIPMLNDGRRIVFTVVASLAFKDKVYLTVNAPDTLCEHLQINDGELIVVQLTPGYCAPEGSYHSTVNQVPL
UniProt P49772: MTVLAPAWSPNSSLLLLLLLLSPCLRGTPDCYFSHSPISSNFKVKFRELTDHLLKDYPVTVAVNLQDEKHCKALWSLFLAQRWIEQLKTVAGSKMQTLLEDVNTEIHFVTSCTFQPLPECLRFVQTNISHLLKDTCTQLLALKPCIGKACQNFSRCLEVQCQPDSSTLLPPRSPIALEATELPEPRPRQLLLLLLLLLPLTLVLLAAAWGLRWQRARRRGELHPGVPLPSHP

Tests used:
[1] = biological target: T1, recombinant mouse m4-1BB protein (mouse) (UniProt P20334); assay: ELISA: plate-bound m41BB (3.3ug/ml), detection anti-m41BBL (1:1000) and anti-goat IgG (1:10,000)
T1 sequence (looked up): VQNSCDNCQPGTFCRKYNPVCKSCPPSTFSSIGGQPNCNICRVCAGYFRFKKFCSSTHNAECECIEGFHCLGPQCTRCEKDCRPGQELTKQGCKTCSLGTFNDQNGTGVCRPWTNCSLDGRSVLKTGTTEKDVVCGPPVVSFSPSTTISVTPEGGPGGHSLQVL

[2] = biological target: T2, recombinant mouse mCD40 protein (mouse) (UniProt P27512); assay: ELISA: plate-bound mCD40 (5ug/ml), detection anti-mCD40L (1:1000) and anti-goat IgG (1:10,000)
T2 sequence (looked up): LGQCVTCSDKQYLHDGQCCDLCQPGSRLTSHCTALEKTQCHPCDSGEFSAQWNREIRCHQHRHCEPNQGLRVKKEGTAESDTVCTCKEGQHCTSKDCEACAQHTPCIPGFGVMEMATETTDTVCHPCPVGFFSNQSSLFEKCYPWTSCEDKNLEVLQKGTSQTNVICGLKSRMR

[3] = biological target: T3, recombinant mouse mOX40 protein (mouse) (UniProt P47741); assay: ELISA: plate-bound mOX40 (5ug/ml), detection anti-mOX40L (1:1000) and anti-goat IgG (1:10,000)
T3 sequence (looked up): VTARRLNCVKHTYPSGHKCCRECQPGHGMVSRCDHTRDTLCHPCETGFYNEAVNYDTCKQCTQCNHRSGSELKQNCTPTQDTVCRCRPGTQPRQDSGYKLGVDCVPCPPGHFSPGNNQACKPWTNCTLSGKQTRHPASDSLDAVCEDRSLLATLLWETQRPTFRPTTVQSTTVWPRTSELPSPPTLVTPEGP

[4] = biological target: T2, recombinant mouse mCD40 protein (mouse); assay: Octet biolayer interferometry, mCD40-his captured on the sensor
[5] = biological target: T4, recombinant mouse mFLT3 protein (mouse) (UniProt Q00342); assay: ELISA, plate-bound recombinant mouse mFLT3, detection with anti-mFLT3L antibody and HRP
T4 sequence (looked up): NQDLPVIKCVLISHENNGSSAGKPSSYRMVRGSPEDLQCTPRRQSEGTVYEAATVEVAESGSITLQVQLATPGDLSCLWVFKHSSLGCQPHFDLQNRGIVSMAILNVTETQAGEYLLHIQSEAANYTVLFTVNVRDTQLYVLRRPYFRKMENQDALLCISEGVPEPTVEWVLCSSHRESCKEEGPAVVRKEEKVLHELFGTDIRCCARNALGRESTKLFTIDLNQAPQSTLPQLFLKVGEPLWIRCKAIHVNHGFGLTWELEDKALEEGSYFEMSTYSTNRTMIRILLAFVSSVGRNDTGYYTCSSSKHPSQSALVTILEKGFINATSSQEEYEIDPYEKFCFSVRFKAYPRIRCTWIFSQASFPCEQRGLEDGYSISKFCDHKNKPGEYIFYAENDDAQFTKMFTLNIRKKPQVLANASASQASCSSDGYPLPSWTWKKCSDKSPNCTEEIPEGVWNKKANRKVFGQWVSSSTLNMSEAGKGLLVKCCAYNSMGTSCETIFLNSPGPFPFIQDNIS

[6] = biological target: T4, recombinant mouse mFLT3 protein (mouse); assay: ELISA: plate-bound mFlt3 (10ug/ml), detection goat anti-mFlt3L (1:1000) and anti-goat IgG (10,000)
[7] = biological target: T4, recombinant mouse mFLT3 protein (mouse); assay: ELISA, as printed here: plate-bound mFlt3 (2.5ug/ml), goat anti-mFlt3L (1:10,000), anti-Goat IgG-HRO (1:10,000)
[8] = biological target: T1, recombinant mouse m4-1BB protein (mouse); assay: ELISA, plate-bound recombinant mouse m4-1BB, detection with anti-m4-1BBL antibody and HRP
[9] = biological target: T1, recombinant mouse m4-1BB protein (mouse); assay: Dual ELISA: capture anti-FLT3L (R&D AF427), detection with m41BB-His (Acro), tertiary anti-His/HRP (Abcam)
[10] = biological target: T4, recombinant mouse mFLT3 protein (mouse); assay: Octet biolayer interferometry, mFLT3-his captured on the sensor
[11] = biological target: T2, recombinant mouse mCD40 protein (mouse); assay: Dual ELISA: capture anti-FLT3L (R&D AF427), detection with mCD40-His (Acro), tertiary anti-His/HRP (Abcam)
[12] = biological target: T2, recombinant mouse mCD40 protein (mouse); assay: ELISA, plate-bound recombinant mouse mCD40, detection with anti-mCD40L antibody and HRP
[13] = biological target: T5, recombinant mouse mGITR protein (mouse) (UniProt O35714); assay: ELISA: plate-bound mGITR (3.3ug/ml), detection anti-mGITRL (1:1000) and anti-Rat IgG (1:10,000)
T5 sequence (looked up): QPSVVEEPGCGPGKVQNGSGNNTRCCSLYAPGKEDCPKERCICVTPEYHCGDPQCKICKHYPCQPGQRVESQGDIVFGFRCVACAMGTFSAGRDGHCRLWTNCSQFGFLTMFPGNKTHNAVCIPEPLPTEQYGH

[14] = biological target: T5, recombinant mouse mGITR protein (mouse); assay: ELISA, plate-bound recombinant mouse mGITR, detection with anti-mGITRL antibody and HRP
[15] = biological target: T3, recombinant mouse mOX40 protein (mouse); assay: ELISA, plate-bound recombinant mouse mOX40, detection with anti-mOX40L antibody and HRP
[16] = biological target: T3, recombinant mouse mOX40 protein (mouse); assay: Dual ELISA: capture anti-FLT3L (R&D AF427), detection with mOX40-His (Acro), tertiary anti-His/HRP (Abcam)

Measured: binding

Standard(m41BBL) (from UniProt P41274) (ligand)
binds: [1]

Standard(mCD40L) (from UniProt P27548) (ligand)
binds: [2]

Standard(mOX40L) (from UniProt P43488) (ligand)
binds: [3]

mCD40L-Fc (Acro) (from UniProt P27548) (Fc fusion)
binds: [4]

mFLT3L-Fc-4-1BBL chimeric protein (from UniProt P49772 27-189; P01868 98-324; P41274 104-309) (Fc fusion)
binds: [1] | [5] | [6] | [7] | [8] | [9]

mFLT3L-Fc-CD40L chimeric protein (from UniProt P49772 27-189; P01868 98-324; P27548 47-260) (Fc fusion)
binds: [4] | [10] | [5] | [6] | [11] | [7] | [2] | [12]

mFLT3L-Fc-GITRL chimeric protein (from UniProt P49772 27-189; P01868 98-324; Q7TS55 42-173) (Fc fusion)
binds: [5] | [6] | [13] | [14] | [7]

mFLT3L-Fc-OX40L chimeric protein (from UniProt P49772 27-189; P01868 98-324; P43488 51-198) (Fc fusion)
binds: [5] | [6] | [3] | [15] | [16] | [7]
